{
  "source": "patent US6734318B2",
  "about": "“Fluorous triphase and other multiphase systems” (University of Pittsburgh, priority 2001, dated 2004)",
  "test": "U-tube transport of guest molecules from aqueous S-phase through FC-72 F-phase to basic aqueous P-phase, with or without fluorous transport agent 3b",
  "format": "physicochemical",
  "conditions": "control: transport agent 3b omitted from the fluorous phase",
  "experimental": "In an illustrative example, several transport experiments were carried out with a variety of guest molecules and fluorous transport agent 3b. The F-phase included transport agent 3b, at about 1 mM in the fluorous solvent FC-72. This F-phase was contacted in a U-tube with a first phase containing various organic compounds in water and a second aqueous phase containing hydroxide ion (pH 11.5 phosphate buffer). After various periods of time at ambient temperature, a portion of the more basic, P-phase was removed and subjected to quantitative analysis by UV absorbance spectrophotometry. The measured absorbances were converted to the concentration of each organic compound by the use of a calibration curve. The organic solutes tested were phenobarbital, secobarbital, mephobarbital, thiopental, 2-ethyl, 2-phenylmalonamide, and p-toluenesulfonate. […] The amount of each compound transported (as a fraction of the amount in the S-phase) is plotted versus time. The data points represent behavior of mephobarbital (represented by solid squares), secobarbital (represented by open squares), thiopental (represented by triangles), phenobarbital (represented by diamonds), malonamide and p-toluenesulfonate (both represented by open circles). Each of the barbiturates was transported through the fluorous phase in the presence of transport agent 3b. […]",
  "note": "At least one compound was matched to its structure with a doubt left.",
  "data": [
    {"compound": "CCC1(c2ccccc2)C(=O)NC(=O)NC1=O", "note": "[phenobarbital]", "values": [
      {"measurement": "transport through the fluorous phase to the P-phase", "result": "no phenobarbital (the only solute tested) was transported"}
    ]}
  ]
}
